Experimental data as given in patent publication US20060088535.
Construct, isoform or probe ends are uncertain for at least one entry. Protein sequences can lack the tags named with them.

Tests used:
[1] = target: T1, ApC/EBP (Aplysia californica) (UniProt A0ABM1A6Q8); test: SELEX; conditions: 13 cycles; 150 or 400 mM KCl; present in each of 48 clones; purified recombinant protein
T1 sequence (looked up, limits assumed): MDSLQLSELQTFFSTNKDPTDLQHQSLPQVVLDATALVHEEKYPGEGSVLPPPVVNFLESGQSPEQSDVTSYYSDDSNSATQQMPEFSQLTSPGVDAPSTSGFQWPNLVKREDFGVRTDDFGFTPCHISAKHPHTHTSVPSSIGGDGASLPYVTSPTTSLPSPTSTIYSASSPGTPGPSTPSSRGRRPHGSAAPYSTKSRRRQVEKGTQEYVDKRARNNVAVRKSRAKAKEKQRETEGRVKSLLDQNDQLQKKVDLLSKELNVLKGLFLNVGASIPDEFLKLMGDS

[2] = tested on: T2, ApCREB-2 (Aplysia californica); test: SELEX; conditions: 13 cycles; 150 or 400 mM KCl; present in each of 48 clones; purified recombinant protein; protein details: 6His N-terminal
T2 sequence (limits assumed): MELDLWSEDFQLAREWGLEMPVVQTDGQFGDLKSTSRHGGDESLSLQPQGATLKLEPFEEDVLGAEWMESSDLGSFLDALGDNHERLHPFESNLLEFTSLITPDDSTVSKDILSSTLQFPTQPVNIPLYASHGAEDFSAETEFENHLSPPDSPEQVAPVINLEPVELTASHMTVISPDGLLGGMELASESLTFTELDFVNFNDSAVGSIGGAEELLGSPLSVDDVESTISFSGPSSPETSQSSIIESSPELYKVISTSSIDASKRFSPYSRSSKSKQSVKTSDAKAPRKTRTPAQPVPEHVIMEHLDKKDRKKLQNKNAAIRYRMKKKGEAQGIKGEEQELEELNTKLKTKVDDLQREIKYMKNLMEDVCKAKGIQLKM

For “ACTATTGCGCAATC (double strand) [BS2 selected sequence]”, the selection result [1] was “selected”.
With “AGTATTGCGTCATC (double strand) [BS1 selected sequence]” the selection result [2] was “selected”.
